In article doi:10.64898/2025.12.11.692727:
No constants are given. Whether binding was seen depends on the method and setting. In cells and extracts the contact can be indirect. Binding calls can cover weak binding; strength is not graded here.

The chains behind the UniProt entries cited, without tags or fusion partners. Where a name states a change or a piece, a line headed by the entry shows the natural chain unless it says otherwise.
UniProt P09874: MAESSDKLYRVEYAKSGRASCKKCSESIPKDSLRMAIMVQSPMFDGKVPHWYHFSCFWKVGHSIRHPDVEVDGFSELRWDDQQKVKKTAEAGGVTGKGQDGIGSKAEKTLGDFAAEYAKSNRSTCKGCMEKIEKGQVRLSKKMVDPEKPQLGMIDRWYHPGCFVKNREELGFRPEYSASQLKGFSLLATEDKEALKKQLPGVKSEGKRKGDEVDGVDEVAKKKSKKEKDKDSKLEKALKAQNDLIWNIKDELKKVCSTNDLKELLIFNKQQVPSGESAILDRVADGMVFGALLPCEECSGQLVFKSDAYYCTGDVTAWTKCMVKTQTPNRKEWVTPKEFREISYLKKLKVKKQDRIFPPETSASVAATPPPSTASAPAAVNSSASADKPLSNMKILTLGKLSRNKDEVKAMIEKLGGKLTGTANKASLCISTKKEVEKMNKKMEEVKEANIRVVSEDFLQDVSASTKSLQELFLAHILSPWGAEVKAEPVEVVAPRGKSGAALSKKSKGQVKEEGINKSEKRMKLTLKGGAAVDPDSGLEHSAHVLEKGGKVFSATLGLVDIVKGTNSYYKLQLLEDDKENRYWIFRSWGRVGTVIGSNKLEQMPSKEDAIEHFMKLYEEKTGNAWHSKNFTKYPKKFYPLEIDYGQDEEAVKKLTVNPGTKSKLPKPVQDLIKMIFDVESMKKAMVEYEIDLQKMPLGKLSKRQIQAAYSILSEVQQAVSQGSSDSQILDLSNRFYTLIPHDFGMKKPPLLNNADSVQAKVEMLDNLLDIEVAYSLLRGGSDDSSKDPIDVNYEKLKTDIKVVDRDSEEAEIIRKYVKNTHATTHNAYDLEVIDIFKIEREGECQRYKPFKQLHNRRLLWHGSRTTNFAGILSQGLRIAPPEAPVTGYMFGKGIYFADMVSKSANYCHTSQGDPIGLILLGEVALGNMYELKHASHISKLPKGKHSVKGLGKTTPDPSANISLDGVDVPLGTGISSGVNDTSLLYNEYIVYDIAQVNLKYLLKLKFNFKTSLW
UniProt Q9Y6I9: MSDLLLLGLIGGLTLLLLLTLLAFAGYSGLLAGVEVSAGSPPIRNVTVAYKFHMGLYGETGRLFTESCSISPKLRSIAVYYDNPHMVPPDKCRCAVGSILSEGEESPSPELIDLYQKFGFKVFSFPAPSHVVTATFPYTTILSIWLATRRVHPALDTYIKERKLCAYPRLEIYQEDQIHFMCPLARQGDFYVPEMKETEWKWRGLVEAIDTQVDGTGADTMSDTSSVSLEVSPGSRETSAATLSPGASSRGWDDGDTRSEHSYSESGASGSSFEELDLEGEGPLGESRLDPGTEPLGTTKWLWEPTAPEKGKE

Molecular target: PARP1-GFP (UniProt P09874)
Assay: co-IP

binding: binds
Substance: TEX264-Δα-Helix (from UniProt Q9Y6I9)
